Out of some 1,300 compounds screened, about 420 (32%) were called active. The inconclusive results got no clear call from the source; some entries with a clear call stand among them for comparison. Calls follow the shape of the dose curve; as a rule, active = well fitted inhibition curve with a large enough effect; inconclusive = small, poorly fitted or top-dose-only effect; inactive = no such curve, though single readings can be large or run the other way. Potencies of inconclusive entries are doubtful fits and often do not repeat.
Target: C-terminal-binding protein 1 (Homo sapiens) (UniProt Q13363)
Assay: qHTS for Inhibitors of the Phosphatase Activity of Eya2: Carboxyl-terminal binding protein (CtBP) Counterscreen for Cherry-picked Compounds; also: nearly all actives have a fitted effect of over 65% in size
Settings: purified protein-protein binding, AlphaScreen, 3 h; series mostly up to 46.1 µM
Description: The Eya protein family is an essential co-activator of the Six1 transcription factor. Six1 is a developmental gene that is abnormally re-expressed in a large percentage of breast cancers. This over-expression plays a causal role in the initiation and metastatic development of breast cancers. The Eya family of protein is also found to contain a unique HAD phosphatase domain with protein tyrosine phosphatase activity which can potentially play a role in Six1-mediated breast tumorigenesis. Recently, Eya2 is found to dephosphorylate the histone variant H2AX and direct cells towards DNA repair instead of apoptosis in the event of DNA damage.
A 1536 well format, fluorescence based qHTS assay was developed and used to target the phosphatase activity of Eya2 (AID 488837). In addition, a CtBP counterscreen was developed using the AlphaScreen technology to evaluate compound selectivity to target […]. The data herein reports the activity of the cherry-picked compounds against the CtBP AlphaScreen. Compounds that are active or have > 100 fold selectivity vs. the Eya2 activity were excluded for further characterization. Inactivity is the desired outcome for the CtBP counterscreen.
NIH Chemical Genomics Center [NCGC]
NIH Molecular Libraries Probe Centers Network [MLPCN]
Assay Submitter (PI): Rui Zhao, University of Colorado Denver
Four microliters of reagent (25 nM GST-E1A, 25 nM CtBP-6x HIS) was dispensed in a 1536 well Greiner plates. Twenty-three nanoliter of test compounds (final concentration of 2.5 nM - 46 uM) and positive control E1A peptide inhibitor (final concentration of 0.14 nM - 4.6 uM) were added to the plates using the Kalypsys pintool equipped with a 1536 pin head. The plates was then incubated at room temperature for 2 hours followed by addition of 1 uL Alpha bead donor / acceptor mix (20 ug/mL final concentration). The assay plates were incubated for additional 1 hour at room temperature and protected from light. The AlphaScreen signal was obtained using the PerkinElmer EnVision plate reader using the 680 nm excitation and 520 - 620 nm emission filters. The data was normalized to the E1A peptide inhibitor for maximum inhibition and DMSO treated wells as negative control.
Potency is read from the fitted curve at half-maximal effect.

Structure (SMILES)	Potency
O=S(=O)(c1ccccc1)[C@@]1(c2ccccc2)C[C@@H]2ON=C(c3cccc(-c4ccccc4)c3)[C@@H]2C1	inactive
Cc1ccc(C(=O)Nc2cccc(-c3nc4ncccc4o3)c2)cc1	inactive
COc1ccccc1-c1cccc(-c2nc(C(=O)Nc3nccs3)cc3c2[C@@H](CCO)N(C(C)=O)C3)c1	inconclusive: 13.5 µM [inhibitor, partial curve]
CN(C)c1ccc(C2C=Cc3ccccc32)c2ccccc12 (stereo not given)	active: 9.53 µM
CC(=O)NS(=O)(=O)c1ccc(NC(=O)c2ccc(NC(=O)c3cccs3)cc2)cc1	inconclusive: 16.9 µM [inhibitor, partial curve]
NC(=O)c1c(NC(=O)c2ccncc2)sc2c1CCCC2	inconclusive: 6.75 µM [inhibitor, partial curve]
O=C(Nc1cccc(-c2cn3cccnc3n2)c1)Nc1ccccc1F	inconclusive: 10.7 µM [inhibitor, partial curve]
CCOc1ccc(NC(=O)Cc2ccc(S(=O)(=O)N3CCCCC3)cc2)cc1OCC	inconclusive: 13.5 µM [inhibitor, partial curve, poor fit]
CCOc1ccc2ccccc2c1C(=O)N[C@@H]1C(=O)N2[C@@H]1SC(C)(C)[C@@H]2C(=O)O	inactive
CN(C)/C(CN1CCCCC1)=C1\N=C(c2ccccc2)OC1=O	inconclusive: 23.9 µM [inhibitor, single point]
COc1cc(SC#N)ccc1N=Cc1c(C)[nH]n(-c2ccc(C)cc2)c1=O	inconclusive: 8.49 µM [inhibitor, partial curve]
COc1ccc(S(=O)(=O)c2c(O)c3ccc(C(=O)Nc4cccc(F)c4)cc3[nH]c2=O)cc1	active: 0.536 µM
O=C(CCn1c(=O)oc2ccccc21)NCc1ccc2c(c1)OCO2	inactive
O=C(C1=C(O)C(=O)N(c2nc3ccc(Cl)cc3s2)C1c1ccco1)c1ccco1 (stereo not given)	inconclusive: 19 µM [inhibitor, single point]
CSc1ccc(CNc2ncc(-c3cccc([N+](=O)[O-])c3)n2C)cc1	inconclusive: 15.1 µM [inhibitor, single point]
O=c1[nH]cnc2c1sc1nc3c(c(-c4ccc(Cl)cc4)c12)CCC3	inconclusive: 2.13 µM [inhibitor, full curve]
c1ccc(-c2ccc(C3=Nn4c(nnc4-c4cc(-c5ccccc5)n[nH]4)SC3)cc2)cc1	inactive
CCOC(=O)c1nn2c(C(F)(F)F)cc(-c3ccc(OC)cc3)nc2c1Br	inconclusive: 6.75 µM [inhibitor, partial curve]
CC(=O)Nc1cc(=O)c2cccnc2[nH]1	inconclusive: 21.3 µM [inhibitor, partial curve]
O=C(O)c1cccc(N2C(=O)c3cccc(Oc4ccc(Cl)cc4)c3C2=O)c1	inactive
CNC(=O)c1ccc(Nc2nnc(-c3ccc(C)c(S(N)(=O)=O)c3)c3ccccc23)cc1	inconclusive: 19 µM [inhibitor, single point]
Cc1ccc(NC(=O)CSc2cccc3cccnc23)c(C)c1	active: 9.53 µM

In the list so far, five have an NH in an aromatic ring:
Structure (SMILES)	Potency
COc1cc(SC#N)ccc1N=Cc1c(C)[nH]n(-c2ccc(C)cc2)c1=O	inconclusive: 8.49 µM [inhibitor, partial curve]
COc1ccc(S(=O)(=O)c2c(O)c3ccc(C(=O)Nc4cccc(F)c4)cc3[nH]c2=O)cc1	active: 0.536 µM
O=c1[nH]cnc2c1sc1nc3c(c(-c4ccc(Cl)cc4)c12)CCC3	inconclusive: 2.13 µM [inhibitor, full curve]
c1ccc(-c2ccc(C3=Nn4c(nnc4-c4cc(-c5ccccc5)n[nH]4)SC3)cc2)cc1	inactive
CC(=O)Nc1cc(=O)c2cccnc2[nH]1	inconclusive: 21.3 µM [inhibitor, partial curve]

Later entries.

Structure (SMILES)	Potency
CNC(=O)c1ccc(Nc2nnc(-c3ccc(C)c(S(=O)(=O)NCC4CCCO4)c3)c3ccccc23)cc1 (stereo not given)	inconclusive: 15.1 µM [inhibitor, single point]
COc1ccc(N2CCN(CC(=O)Nc3ccccc3C(=O)NC(C)c3ccccc3)CC2)cc1 (stereo not given)	inconclusive: 16.9 µM [inhibitor, partial curve]
C=CCn1cccc(C(=O)Nc2ccc(N(C)C)cc2)c1=O	inactive
O=C(/C=C\c1ccccc1)Oc1cccc2cccnc12	active: 3.38 µM
O=C(COc1ccccc1/C=C1/NC(=O)NC1=O)Nc1ccccc1	inactive
CN(C)c1c(Cl)cc(/C=C2\C=Cc3ccccc32)cc1Cl	inconclusive: 9.53 µM [inhibitor, partial curve]
Cc1cnc2ccc(I)cc2c1/C=C/c1ccc(N(C)C)cc1	active: 10.7 µM
COc1ccc2c(c1)sc1nc(=O)ccn12	inactive
COc1cc(OC)c(OC)cc1/C=C1\CC(C)C/C(=C\c2cc(OC)c(OC)cc2OC)C1=O (stereo not given)	inactive
O=C(O)c1nc(-c2ccccc2)n(-c2cccc(C(F)(F)F)c2)n1	inconclusive: 15.1 µM [inhibitor, single point]
COc1cc(NC(=O)CN2C(=O)CSc3ccc(S(=O)(=O)N4CCCC4)cc32)cc(OC)c1	inactive
Cn1c2ccccc2c2nnc(SCC(=O)Nc3cccc(O)c3)nc21	inconclusive: 9.53 µM [inhibitor, partial curve]
CSc1nc2nc3c(cc2c(=O)[nH]1)C(O)Oc1ccc(C)cc1-3 (stereo not given)	inconclusive: 16.9 µM [inhibitor, partial curve]
O=C(CCS(=O)(=O)c1ccc(Br)cc1)N1CCCCCC1	inactive
Cc1ccc(Sc2ccc(CN3CCCCC3)cc2[N+](=O)[O-])cc1	inconclusive: 19 µM [inhibitor, partial curve]
Cn1c(=O)[nH]c2nnc(-c3ccc(Cl)c(Cl)c3)nc2c1=O	inconclusive: 15.1 µM [inhibitor, partial curve]
CCOC(=O)c1c2ccc(OCC(=O)NN)cc2n2ccccc12	inconclusive: 15.1 µM [inhibitor, single point]
Cc1ccc(C(=O)NCCn2c(N)c(C#N)c3nc4ccccc4nc32)cc1	inconclusive: 2.13 µM [inhibitor, full curve]
CC1=CC(C)(C)n2c(O)c(C3=NC(=S)NC3=O)c3cc(OC(=O)c4cccc5ccccc45)cc1c32	inactive
CC1CCN(C(=O)Nc2ccc3nc(-c4ccco4)c(-c4ccco4)nc3c2)CC1	active: 15.1 µM
COc1cc2c(cc1OC)-c1cc(Nc3ccccc3)nc(=O)n1CC2	active: 6.75 µM
COC(=O)/C=C1\OCc2cc(OC)c(OC)cc21	inconclusive: 15.1 µM [inhibitor, partial curve]

From PubChem BioAssay AID720541 (National Center for Advancing Translational Sciences (NCATS), 2013)
